Measured values reported in patent publication US4150126A, “Novel enol esters of steroids, compositions containing such compounds, processes for their preparation and methods of treatment therewith” (Aktiebolaget Leo, priority 1976, dated 1979).

Columns and labels:
[1] = tested on: Hepatoma AH 130; assay: Hepatoma AH 130 tumour growth inhibition in rats, i.p.; format: in vivo, Sprague-Dawley rats; conditions: therapeutic index, ratio LD50/ED50; Hepatoma AH 130, i.p.
Source text: (§1) LD50 is the dose that causes a 50 percent lethality of the animals, and ED50 is the dose that causes a 50 percent reduction of tumour size.
(§2) From the data below it is obvious that the compounds have a very low toxicity, and that the therapeutic indexes (T.I.), i.e. the ratios LD50/ED50, are very high.
(§3) The experimental design is in accordance with the standards set by the CCNSC (Cancer Cheomotherapy Reports, January 1959 and December 1962).
(§4) Experimental animals: Sprague-Dawley rats.
Tumour implant: 5 × 10^6 tumour cells i.p.
Therapy: One injection i.p. on the day following implantation.
Termination: The animals are killed on the 8th day.
(§5) Evaluation: Weights of tumours of test animals are compared
(§6) with those of control animals.

[2] = tested on: Walker carcinosarcoma 256; assay: Walker carcinosarcoma 256 tumour growth inhibition in rats, p.o.; format: in vivo, Sprague-Dawley rats; conditions: therapeutic index, ratio LD50/ED50; Walker carcinosarcoma 256, p.o.
Source text: as §1, §2, §3
Walker carcinosarcoma 256
as §4
Tumour implant: Tumour pieces with 2-4 mm diameter, subcu-
Therapy: Daily p.o. administration for 5 days starting on
the day following implantation.
Termination: The animals are killed on the 9th day.
as §5, §6

Compound	T.I. [1]	T.I. [2]
C#C[C@]1(OC(C)=O)CC[C@H]2[C@@H]3CC=C4C=C(OC(=O)CCCc5ccc(N(CCCl)CCCl)cc5)CC[C@@H]4[C@H]3CC[C@@]21C [Compound 2:2, 17β-acetoxy-3/4-(4-(N,N-bis(2-chloroethyl)amino)phenyl)butanoyloxy/-17α-ethynylestra-3,5-diene]	> 10	40
CC(=O)O[C@H]1CC[C@H]2[C@@H]3CC=C4C=C(OC(=O)CCCc5ccc(N(CCCl)CCCl)cc5)CC[C@]4(C)[C@H]3CC[C@]12C [1:11, 17β-acetoxy-3-[4-(4-(N,N-bis(2-chloroethyl)amino)phenyl)butanoyloxy]androsta-3,5-diene]	> 12	50
CC(=O)O[C@H]1CC[C@H]2[C@@H]3CCC4CC(OC(=O)CCCc5ccc(N(CCCl)CCCl)cc5)=CC[C@]4(C)[C@H]3CC[C@]12C (stereo partly drawn) [1:12, 17β-acetoxy-3-[4-(4-(N,N-bis(2-chloroethyl)amino)phenyl)butanoyloxy]androst-2-ene]	> 8	150
CC(=O)O[C@]1(C(C)=O)CC[C@H]2[C@@H]3CC=C4C=C(OC(=O)CCCc5ccc(N(CCCl)CCCl)cc5)CC[C@]4(C)[C@H]3CC[C@@]21C [Compound 1:1, 17-acetoxy-3-/4-(4-(N,N-bis(2-chloroethyl)amino)phenyl)butanoyloxy/pregna-3,5-dien-20-one]		> 125
CC(=O)[C@H]1CC[C@H]2[C@@H]3CC=C4C=C(OC(=O)CCCc5ccc(N(CCCl)CCCl)cc5)CC[C@]4(C)[C@H]3CC[C@]12C [Compound 1:2, 3-/4-(4-(N,N-bis(2-chloroethyl)amino)phenyl)butanoyloxy/pregna-3,5-dien-20-one]	13	83
CC(=O)O[C@]1(C(C)=O)CC[C@H]2[C@@H]3CC=C4C=C(OC(=O)c5ccc(C)c(N(CCCl)CCCl)c5)CC[C@]4(C)[C@H]3CC[C@@]21C [2:11, 17-acetoxy-3-[3-(N,N-bis(2-chloroethyl)amino)-4-methylbenzoyloxy]pregna-3,5-dien-20-one]	> 5	
CC(=O)OCC(=O)[C@@]1(OC(C)=O)CC[C@H]2[C@@H]3CC=C4C=C(OC(=O)CCCc5ccc(N(CCCl)CCCl)cc5)CC[C@]4(C)[C@H]3CC[C@@]21C [1:16, 17,21-diacetoxy-3-[4-(4-(N,N-bis(2-chloroethyl)amino)phenyl)butanoyloxy]-pregna-3,5-dien-20-one]		> 30
CC(=O)O[C@]1(C(C)=O)CC[C@H]2[C@@H]3CC=C4C=C(OC(=O)Cc5ccc(N(CCCl)CCCl)cc5)CC[C@]4(C)[C@H]3CC[C@@]21C [Compound 1:14, 17-acetoxy-3-[4-(N,N-bis(2-chloroethyl)amino)phenylacetoxy]pregna-3,5-dien-20-one]	> 30	> 125
